PubChem BioAssay AID1259267 – Sanger Institute | 2017
Aim: 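Kinase and colorectal-mutated gene knock-downs lethal to GP5D cells alone or with drugs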 (primary screen). Cells: human GP5D colorectal cancer cells. Reagents: siRNA pool against human genes. Conditions: anchor drugs at low dose: BYL719 1 µM, cetuximab 5 µg/ml, trametinib 10 nM, or DMSO vehicle. Read-out: 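Viability against non-targeting pool, replicate mean: robust z-score for knock-down alone, fraction with DMSO, synergy with BYL719 1 µM, cetuximab 5 µg/ml, trametinib 10 nM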. Direction: robust z-score, knock-down alone and viability with DMSO: higher = more viable cells; synergy score with trametinib and synergy score with BYL719 and synergy score with cetuximab: higher = stronger synthetic lethal synergy with drug. Rule for the call: 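a robust z-score below -3 for the knock-down by itself makes a gene active, i.e. essential alone; synergy scores are ignored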. Calls: active = essential alone; inactive = not essential.
Shown is one part, drawn at random, of 794 deposited reagents. 9 of all reagents (1.1%) were called active. 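Viability capped at 1; calls reflect loss of viability from knock-down alone, not synergy with drugs.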 Entries without a mark were called inactive. No sequences are given here. Not given: the amount of reagent, the time to read-out.

Target gene | robust z-score, knock-down alone | viability with DMSO (fraction of control) | synergy score with trametinib | synergy score with BYL719 | synergy score with cetuximab
NTRK2 | 0.817 | 1 | -0.133 | -0.254 | -0.142
MAP3K8 | 0.475 | 0.927 | 0.256 | -0.0308 | -0.134
TESK1 | -0.274 | 0.769 | 0.327 | -0.127 | -0.0565
PTGS1 | -0.3 | 0.763 | 0.0568 | -0.144 | 0.00146
SYK | -1.6 | 0.487 | 0.0175 | -0.2 | -0.0455
ERBB2 | 0.817 | 1 | -0.0484 | -0.361 | -0.0824
FGFR3 | 0.518 | 0.937 | 0.088 | 0.00408 | 0.00545
CIT | 0.817 | 1 | 0.208 | -0.00983 | 0.171
MAP4K1 | -0.073 | 0.811 | 0.0237 | -0.296 | -0.235
SMG1 | -2.25 | 0.351 | -0.0154 | -0.236 | -0.09
CSNK1A1 | 0.817 | 1 | 0.358 | -0.0902 | 0.196
TAB1 | 0.817 | 1 | 0.175 | -0.135 | 0.116
EIF2AK1 | 0.664 | 0.967 | 0.207 | 0.0483 | 0.313

2 entries from above, reformatted:
Target gene	robust z-score, knock-down alone	viability with DMSO (fraction of control)	synergy score with trametinib	synergy score with BYL719	synergy score with cetuximab
MAP3K8	0.475	0.927	0.256	-0.0308	-0.134
TESK1	-0.274	0.769	0.327	-0.127	-0.0565

Further reagents follow:
Target gene | robust z-score, knock-down alone | viability with DMSO (fraction of control) | synergy score with trametinib | synergy score with BYL719 | synergy score with cetuximab
MATK | 0.642 | 0.963 | 0.0817 | -0.185 | -0.127
STK11 | -1.76 | 0.455 | 0.209 | -0.118 | 0.0909
IRAK2 | 0.301 | 0.891 | 0.296 | -0.0941 | -0.0288
PLK4 | -2.9 | 0.212 | -0.0456 | -0.152 | -0.00889
FXR1 | 0.563 | 0.946 | -0.126 | -0.118 | -0.188
ADCK2 | -1.71 | 0.465 | -0.133 | -0.261 | -0.237
MTOR | 0.817 | 1 | 0.0881 | 0.0135 | 0.00469
